Laboratory results from publication PMC12704088.
These are yes or no findings as the source states them, for the method shown. Binding seen in cells or lysates may run through a third protein. Binding calls can cover weak binding; strength is not graded here. One block for each substance: values may come before it.

By UniProt entry, the sequences of proteins in these tests, tags left out. Where a name states a change or a piece, a line headed by the entry shows the natural chain unless it says otherwise. Chains listed by the source or under a name are the forms on record and can include a tag or linker.
UniProt P21333: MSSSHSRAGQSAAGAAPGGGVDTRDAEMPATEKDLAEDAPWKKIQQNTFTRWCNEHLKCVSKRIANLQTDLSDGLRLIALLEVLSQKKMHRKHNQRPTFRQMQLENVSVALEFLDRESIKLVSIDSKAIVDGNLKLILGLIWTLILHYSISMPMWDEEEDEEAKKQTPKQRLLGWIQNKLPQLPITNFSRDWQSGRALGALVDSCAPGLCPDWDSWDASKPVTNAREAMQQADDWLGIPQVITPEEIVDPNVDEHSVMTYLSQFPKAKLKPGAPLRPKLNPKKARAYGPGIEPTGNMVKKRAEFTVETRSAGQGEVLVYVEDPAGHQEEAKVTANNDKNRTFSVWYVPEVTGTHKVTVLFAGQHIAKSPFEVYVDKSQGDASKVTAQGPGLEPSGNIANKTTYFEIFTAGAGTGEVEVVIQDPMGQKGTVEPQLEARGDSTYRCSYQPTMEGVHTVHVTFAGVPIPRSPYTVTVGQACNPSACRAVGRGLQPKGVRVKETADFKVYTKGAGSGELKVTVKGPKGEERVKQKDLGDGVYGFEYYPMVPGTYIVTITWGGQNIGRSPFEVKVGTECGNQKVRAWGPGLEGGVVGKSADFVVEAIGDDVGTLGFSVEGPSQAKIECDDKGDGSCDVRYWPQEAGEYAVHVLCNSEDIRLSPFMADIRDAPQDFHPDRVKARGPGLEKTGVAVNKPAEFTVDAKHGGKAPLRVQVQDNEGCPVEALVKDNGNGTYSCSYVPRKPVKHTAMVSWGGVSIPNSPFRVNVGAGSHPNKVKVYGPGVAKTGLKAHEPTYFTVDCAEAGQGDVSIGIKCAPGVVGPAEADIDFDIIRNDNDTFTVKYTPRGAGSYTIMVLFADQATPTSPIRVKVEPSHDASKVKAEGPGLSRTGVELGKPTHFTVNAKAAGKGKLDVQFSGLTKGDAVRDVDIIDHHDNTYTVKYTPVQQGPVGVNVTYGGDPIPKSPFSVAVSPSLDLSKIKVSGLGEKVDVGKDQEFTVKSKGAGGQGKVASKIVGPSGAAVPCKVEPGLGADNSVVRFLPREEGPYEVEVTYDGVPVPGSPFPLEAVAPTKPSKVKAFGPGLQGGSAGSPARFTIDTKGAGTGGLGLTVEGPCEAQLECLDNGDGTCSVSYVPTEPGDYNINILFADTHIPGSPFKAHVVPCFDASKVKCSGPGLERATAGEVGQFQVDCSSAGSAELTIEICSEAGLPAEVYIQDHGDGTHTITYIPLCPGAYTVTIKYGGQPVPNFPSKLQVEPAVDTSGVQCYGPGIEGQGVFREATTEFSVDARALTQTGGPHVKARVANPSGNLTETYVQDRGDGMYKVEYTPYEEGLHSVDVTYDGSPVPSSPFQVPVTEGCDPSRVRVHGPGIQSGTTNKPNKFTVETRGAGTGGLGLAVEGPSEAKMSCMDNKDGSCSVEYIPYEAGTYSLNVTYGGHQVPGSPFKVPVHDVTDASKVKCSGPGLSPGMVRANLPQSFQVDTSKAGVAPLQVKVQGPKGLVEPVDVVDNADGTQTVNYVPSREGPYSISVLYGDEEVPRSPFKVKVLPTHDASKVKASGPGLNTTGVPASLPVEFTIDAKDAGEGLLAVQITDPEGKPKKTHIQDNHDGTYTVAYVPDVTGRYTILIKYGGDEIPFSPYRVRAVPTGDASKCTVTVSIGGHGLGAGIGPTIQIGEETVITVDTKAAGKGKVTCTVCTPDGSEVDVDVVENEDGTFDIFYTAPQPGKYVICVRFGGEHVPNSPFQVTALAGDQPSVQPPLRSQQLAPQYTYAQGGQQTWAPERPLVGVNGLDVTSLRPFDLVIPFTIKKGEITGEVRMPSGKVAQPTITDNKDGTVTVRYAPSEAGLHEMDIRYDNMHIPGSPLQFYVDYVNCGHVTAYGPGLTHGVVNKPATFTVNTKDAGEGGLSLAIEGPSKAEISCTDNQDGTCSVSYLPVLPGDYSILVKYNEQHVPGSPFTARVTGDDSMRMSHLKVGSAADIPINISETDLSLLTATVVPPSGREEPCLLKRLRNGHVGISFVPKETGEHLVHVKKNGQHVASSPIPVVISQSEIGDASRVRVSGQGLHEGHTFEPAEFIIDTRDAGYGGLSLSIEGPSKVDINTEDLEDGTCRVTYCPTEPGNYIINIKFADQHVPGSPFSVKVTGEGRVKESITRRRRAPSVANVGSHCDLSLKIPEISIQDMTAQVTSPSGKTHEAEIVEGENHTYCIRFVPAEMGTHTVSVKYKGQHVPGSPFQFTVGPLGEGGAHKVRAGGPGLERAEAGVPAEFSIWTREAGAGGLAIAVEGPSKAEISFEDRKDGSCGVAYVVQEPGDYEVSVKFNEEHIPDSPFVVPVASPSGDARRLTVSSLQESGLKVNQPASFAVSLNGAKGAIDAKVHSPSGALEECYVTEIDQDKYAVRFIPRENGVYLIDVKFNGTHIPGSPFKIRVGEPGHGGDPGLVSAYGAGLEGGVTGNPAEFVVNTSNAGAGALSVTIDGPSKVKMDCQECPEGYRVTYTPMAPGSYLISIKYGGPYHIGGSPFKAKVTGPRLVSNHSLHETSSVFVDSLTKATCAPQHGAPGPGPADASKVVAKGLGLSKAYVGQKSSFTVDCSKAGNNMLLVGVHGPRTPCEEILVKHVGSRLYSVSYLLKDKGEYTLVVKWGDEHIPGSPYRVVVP
mCherry-FLNA Δ571-866 (P21333, form named): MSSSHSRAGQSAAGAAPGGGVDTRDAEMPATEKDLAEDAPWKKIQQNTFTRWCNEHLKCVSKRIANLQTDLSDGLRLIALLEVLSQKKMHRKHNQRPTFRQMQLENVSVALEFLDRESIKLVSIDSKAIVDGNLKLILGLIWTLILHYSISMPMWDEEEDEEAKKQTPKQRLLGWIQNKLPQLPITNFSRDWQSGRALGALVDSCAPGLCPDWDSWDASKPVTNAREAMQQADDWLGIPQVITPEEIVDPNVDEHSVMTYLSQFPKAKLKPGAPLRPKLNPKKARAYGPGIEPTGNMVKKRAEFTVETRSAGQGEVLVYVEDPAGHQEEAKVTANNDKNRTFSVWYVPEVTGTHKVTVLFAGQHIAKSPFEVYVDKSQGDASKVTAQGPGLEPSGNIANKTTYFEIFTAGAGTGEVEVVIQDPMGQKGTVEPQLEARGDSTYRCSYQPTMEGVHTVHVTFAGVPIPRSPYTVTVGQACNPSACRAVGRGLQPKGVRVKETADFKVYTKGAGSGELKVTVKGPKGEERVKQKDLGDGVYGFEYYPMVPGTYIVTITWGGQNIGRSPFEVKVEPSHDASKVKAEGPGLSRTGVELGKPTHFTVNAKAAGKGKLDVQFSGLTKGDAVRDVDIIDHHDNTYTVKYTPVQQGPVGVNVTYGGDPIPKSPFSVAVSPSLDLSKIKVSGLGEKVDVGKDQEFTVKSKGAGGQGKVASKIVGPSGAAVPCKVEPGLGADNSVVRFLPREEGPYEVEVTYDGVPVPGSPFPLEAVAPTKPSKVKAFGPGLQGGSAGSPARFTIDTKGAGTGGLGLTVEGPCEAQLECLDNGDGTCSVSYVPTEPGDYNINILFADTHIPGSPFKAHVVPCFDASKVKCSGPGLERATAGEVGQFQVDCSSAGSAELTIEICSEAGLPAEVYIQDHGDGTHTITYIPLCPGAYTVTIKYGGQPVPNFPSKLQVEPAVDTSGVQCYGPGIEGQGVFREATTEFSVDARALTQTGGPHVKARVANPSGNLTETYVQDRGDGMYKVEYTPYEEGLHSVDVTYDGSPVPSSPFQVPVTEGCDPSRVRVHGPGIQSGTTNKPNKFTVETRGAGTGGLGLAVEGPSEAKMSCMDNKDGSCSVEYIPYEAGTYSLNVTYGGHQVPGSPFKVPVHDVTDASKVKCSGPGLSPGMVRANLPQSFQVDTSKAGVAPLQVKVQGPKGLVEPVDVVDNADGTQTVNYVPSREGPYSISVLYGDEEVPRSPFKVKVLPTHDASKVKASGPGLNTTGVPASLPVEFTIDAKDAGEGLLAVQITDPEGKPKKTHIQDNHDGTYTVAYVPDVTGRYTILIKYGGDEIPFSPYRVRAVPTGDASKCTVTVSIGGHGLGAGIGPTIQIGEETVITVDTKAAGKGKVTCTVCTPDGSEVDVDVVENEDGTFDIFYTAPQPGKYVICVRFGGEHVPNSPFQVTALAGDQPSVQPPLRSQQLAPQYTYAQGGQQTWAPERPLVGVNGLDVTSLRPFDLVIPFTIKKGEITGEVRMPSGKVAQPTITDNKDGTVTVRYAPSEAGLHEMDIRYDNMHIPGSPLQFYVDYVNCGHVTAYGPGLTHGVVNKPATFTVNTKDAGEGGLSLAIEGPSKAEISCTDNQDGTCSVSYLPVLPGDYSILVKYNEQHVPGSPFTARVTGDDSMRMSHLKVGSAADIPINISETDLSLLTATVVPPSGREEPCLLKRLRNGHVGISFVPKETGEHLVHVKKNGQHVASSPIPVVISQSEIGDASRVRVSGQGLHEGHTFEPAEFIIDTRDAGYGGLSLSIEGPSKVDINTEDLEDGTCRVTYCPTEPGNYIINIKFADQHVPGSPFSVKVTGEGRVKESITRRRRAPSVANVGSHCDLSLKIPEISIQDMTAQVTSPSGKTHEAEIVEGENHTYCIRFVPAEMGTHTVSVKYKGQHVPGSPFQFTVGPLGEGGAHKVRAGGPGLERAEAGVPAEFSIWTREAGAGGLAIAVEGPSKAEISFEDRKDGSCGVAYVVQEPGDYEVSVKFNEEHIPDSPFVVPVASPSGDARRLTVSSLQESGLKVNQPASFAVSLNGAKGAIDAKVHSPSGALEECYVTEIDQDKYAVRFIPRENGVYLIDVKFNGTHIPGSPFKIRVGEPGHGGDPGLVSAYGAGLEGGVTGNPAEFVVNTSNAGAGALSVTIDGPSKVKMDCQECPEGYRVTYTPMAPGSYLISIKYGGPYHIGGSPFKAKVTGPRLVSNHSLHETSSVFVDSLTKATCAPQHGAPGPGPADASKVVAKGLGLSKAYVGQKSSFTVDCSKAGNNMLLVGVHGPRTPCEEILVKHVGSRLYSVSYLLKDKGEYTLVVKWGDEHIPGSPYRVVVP

Legend:
[1] = target: Myc-FLNA (Filamin A, wild type) (UniProt P21333); assay: co-IP; IP with anti-Myc antibody on Dynabeads from lysates of transfected HuH7 cells (150 mM NaCl, 50 mM Tris-HCl, 10% glycerol), overnight 4°C; immunoblot; IgG or beads-only control
Myc-FLNA S2152A = Myc-FLNA S2152A (UniProt P21333); assay: as above
mCherry-FLNA Δ571-866 = mCherry-FLNA Δ571-866 (UniProt P21333); assay: co-IP; IP with anti-mCherry antibody on Dynabeads from lysates of transfected HuH7 cells; immunoblot with anti-mCherry and anti-Flag; beads-only control
[2] = target: Filamin A (FLNA), endogenous (human (endogenous in HepG2, HLF, HuH7, Hep3B and human organoids)) (UniProt P21333); assay: co-IP; IP with anti-FLNA antibody of endogenous FLNA from HuH7 and HLF cell lysates; immunoblot for DLC1
[3] = target: Filamin A (FLNA), endogenous (human (endogenous in HepG2, HLF, HuH7, Hep3B and human organoids)) (UniProt P21333); assay: proximity ligation; DuoLink in situ PLA with anti-DLC1, anti-FLNA and anti-MRTF-A antibodies in fixed HepG2, HLF, HuH7, Hep3B cells and monolayers of human organoids; treatments: HA-FLNA-ABD or GFP-DLC1 expression, tat-DLC1bp, HA-100, EGF, LPA, Latrunculin B, S14C-actin, RhoAV14
[4] = target: FLNA with a fluorescent protein for FRET (UniProt P21333); assay: FRET or BRET; acceptor photobleaching FRET (ECFP donor, dsRed acceptor) in fixed transfected cells, serum-starved 18 h, 20 µM LPA or H2O for 45 min

Substance: Flag-DLC1 (Deleted in Liver Cancer 1) (from UniProt Q96QB1-1)
- binding [1]: binds
- binding (Myc-FLNA S2152A): binds
- binding (mCherry-FLNA Δ571-866): binds

Substance: GFP-DLC1 full length (wild type) (from UniProt Q96QB1-1)
- binding [1]: binds

More lines, now with the values ahead:

- binding [1]: no binding
Substance: GFP-DLC1 ΔRhoGAP (from UniProt Q96QB1-2)

- binding [2]: binds
- binding [3]: binds
Substance: Deleted in Liver Cancer 1 (DLC1), endogenous (from UniProt Q96QB1-1)

- binding [4]: binds
Substance: DLC1 with a fluorescent protein for FRET (from UniProt Q96QB1-1)
